Reference: publication PMC2788426
No constants are given. Whether binding was seen depends on the method and setting. For some of these results: In cells and extracts the contact can be indirect. Some binding calls cover weakened binding; strength is not graded here.

The chains behind the UniProt entries cited, without tags or fusion partners.
UniProt P19338: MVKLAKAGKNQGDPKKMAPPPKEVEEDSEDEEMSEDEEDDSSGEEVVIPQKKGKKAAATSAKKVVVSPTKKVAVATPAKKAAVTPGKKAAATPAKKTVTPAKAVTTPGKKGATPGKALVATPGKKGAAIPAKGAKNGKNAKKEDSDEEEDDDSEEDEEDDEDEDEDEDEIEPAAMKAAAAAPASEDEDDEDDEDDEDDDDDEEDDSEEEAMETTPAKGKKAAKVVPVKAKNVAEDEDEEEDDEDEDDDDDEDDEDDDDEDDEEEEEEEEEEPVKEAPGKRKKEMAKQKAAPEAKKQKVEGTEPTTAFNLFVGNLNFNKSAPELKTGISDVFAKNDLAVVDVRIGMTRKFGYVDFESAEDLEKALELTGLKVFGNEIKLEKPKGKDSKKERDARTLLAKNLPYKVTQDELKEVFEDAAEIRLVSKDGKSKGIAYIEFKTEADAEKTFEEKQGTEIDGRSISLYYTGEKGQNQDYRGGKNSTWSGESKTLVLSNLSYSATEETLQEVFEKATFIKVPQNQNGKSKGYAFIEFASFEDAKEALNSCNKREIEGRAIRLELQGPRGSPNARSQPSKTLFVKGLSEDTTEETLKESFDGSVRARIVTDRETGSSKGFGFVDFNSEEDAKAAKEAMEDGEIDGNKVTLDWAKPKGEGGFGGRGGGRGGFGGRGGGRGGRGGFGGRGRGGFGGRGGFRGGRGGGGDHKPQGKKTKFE
UniProt P42224: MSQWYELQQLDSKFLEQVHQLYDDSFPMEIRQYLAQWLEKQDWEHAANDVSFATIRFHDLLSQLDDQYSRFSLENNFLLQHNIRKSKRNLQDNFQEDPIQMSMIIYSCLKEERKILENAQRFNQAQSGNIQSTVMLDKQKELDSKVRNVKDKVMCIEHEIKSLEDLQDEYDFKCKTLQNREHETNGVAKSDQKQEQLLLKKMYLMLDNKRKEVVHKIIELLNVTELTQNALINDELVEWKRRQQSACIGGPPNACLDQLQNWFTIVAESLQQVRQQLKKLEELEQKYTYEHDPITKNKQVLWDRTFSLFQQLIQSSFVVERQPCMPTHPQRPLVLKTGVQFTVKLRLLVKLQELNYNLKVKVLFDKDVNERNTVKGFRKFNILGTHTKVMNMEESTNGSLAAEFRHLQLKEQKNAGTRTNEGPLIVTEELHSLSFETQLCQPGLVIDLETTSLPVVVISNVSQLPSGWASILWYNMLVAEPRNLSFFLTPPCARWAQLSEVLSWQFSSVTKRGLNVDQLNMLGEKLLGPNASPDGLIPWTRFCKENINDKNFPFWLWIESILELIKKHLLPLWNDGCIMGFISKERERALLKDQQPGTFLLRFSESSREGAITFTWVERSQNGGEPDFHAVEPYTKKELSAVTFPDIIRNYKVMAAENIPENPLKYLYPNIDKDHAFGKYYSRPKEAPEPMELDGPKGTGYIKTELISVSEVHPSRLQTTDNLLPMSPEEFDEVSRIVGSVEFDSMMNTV

Experiments:
[1] = molecular target: nucleolin (endogenous, THP-1 cells) (human (endogenous in THP-1)) (UniProt P19338); experiment: co-IP; whole-cell extracts of PMA stimulated THP-1 cells; anti-nucleolin or anti-Stat1 antibody coupled to protein A/G-agarose; Western blotting for Stat1 or nucleolin
[2] = molecular target: nucleolin (endogenous, THP-1 cells) (human (endogenous in THP-1)) (UniProt P19338); experiment: co-IP; whole-cell extracts of non-stimulated THP-1 cells; anti-nucleolin or anti-Stat1 antibody coupled to protein A/G-agarose; Western blotting for Stat1 or nucleolin
[3] = molecular target: nucleolin (endogenous, THP-1 cells) (human (endogenous in THP-1)) (UniProt P19338); experiment: cross-linking; cytosolic (S100) fractions of PMA stimulated THP-1 cells; 2 mM BS3, 30 min at RT, stopped with 50 mM Tris; then immunoprecipitation with anti-nucleolin or anti-Stat1 antibodies and Western blotting
[4] = molecular target: nucleolin (endogenous, THP-1 cells) (human (endogenous in THP-1)) (UniProt P19338); experiment: native gel or EMSA; 32P-labeled GAS oligonucleotide; extracts of THP-1 cells treated with PMA for 24, 48 or 72 h; 30 min at 25°C; extracts pre-incubated with 3 µg of Stat1 polyclonal or nucleolin monoclonal antibodies (antibody competition/supershift)

Substance: Stat1 (endogenous, human cells) (from UniProt P42224 1-750)
- binding [1]: binds
- binding [2]: no binding (condition: unstimulated THP-1 cells (no PMA))
- binding [3]: binds
- binding [4]: binds
